At least one compound was matched to its structure with a doubt left.
Key:
[1] = test system: colon of B6 recipients of BMT from BALB/c donor (intestinal hypoxia); assay: Hypoxyprobe (pimonidazole) staining of colon in allogeneic BMT recipients treated orally with deferasirox; format: in vivo, mouse; conditions: deferasirox 20 mg/kg orally every day vs vehicle, 21 days after BMT (FIG. 12G)
[2] = test system: colon of GF B6 recipients of BMT from BALB/c donor (intestinal hypoxia); assay: Hypoxyprobe staining of colon in germ-free allogeneic BMT recipients treated with deferasirox; format: in vivo, mouse; conditions: deferasirox 20 mg/kg orally every day, 21 days after BMT (FIG. 13D)

O=C(O)c1ccc(-n2nc(-c3ccccc3O)nc2-c2ccccc2O)cc1 [deferasirox]
loss of hypoxia in the intestines (Hypoxyprobe staining, relative fluorescent intensity in colon) [1]: mitigated loss of hypoxia in the allogeneic recipients
loss of hypoxia after BMT (Hypoxyprobe staining in colon) [2]: ameliorated loss of hypoxia

Reference: patent US20260232774A1, “COMPOSITIONS AND METHODS FOR TREATING INTESTINAL MICROBIOME DYSBIOSIS” (The Regents of the University of Michigan, priority 2023, published 2026)
